Experimental findings from PubChem BioAssay AID720506 (National Center for Advancing Translational Sciences (NCATS), 2013) are described below.

The chains behind the UniProt entries cited, without tags or fusion partners.
UniProt P35462, whole entry, looked up: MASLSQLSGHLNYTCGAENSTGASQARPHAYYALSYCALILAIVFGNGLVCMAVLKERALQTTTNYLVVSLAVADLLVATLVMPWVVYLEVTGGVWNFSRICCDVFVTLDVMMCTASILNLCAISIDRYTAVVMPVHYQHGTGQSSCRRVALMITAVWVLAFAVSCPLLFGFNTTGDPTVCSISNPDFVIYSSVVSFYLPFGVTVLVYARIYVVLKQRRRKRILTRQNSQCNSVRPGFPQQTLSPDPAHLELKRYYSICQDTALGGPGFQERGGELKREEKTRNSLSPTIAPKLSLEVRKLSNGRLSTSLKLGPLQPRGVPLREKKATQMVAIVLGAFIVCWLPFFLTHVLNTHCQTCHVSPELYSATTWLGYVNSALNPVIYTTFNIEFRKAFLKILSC

The structures appear in SMILES notation. Screen size: about 2,300 compounds; about 95 (4%) were called active. Not shown: some 17% with an inconclusive outcome. Calls follow the shape of the dose curve; as a rule, active = well fitted activation curve with a large enough effect; inconclusive = small, poorly fitted or top-dose-only effect; inactive = flat fitted curve, though single readings scatter. The list shows a part of the results, in another mix than the full data.

The target of this test is D(3) dopamine receptor (Homo sapiens) (UniProt P35462). As to the kind of experiment: qHTS of D3 Dopamine Receptor Agonist: D3 Dopamine Receptor B-arrestin Agonist Confirmatory Assay.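 Also: 100% = dopamine control response; nearly all actives have a fitted effect of over 70% in size.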 The following applies: DiscoveRx D3 beta-arrestin cells, luminescence, 90 min; at 76.9 µM (top of the series). The source says: D3 DARs represent a very important target for the treatment of several neuropsychiatric disorders. Indeed, one of the most promising therapeutic applications for the D3 DAR is in the area of addiction and related disorders. […] These findings have been observed with a number of addictive substances including cocaine, amphetamine, nicotine, and alcohol. […] Increased D3 DAR activity can thus lead to neuroprotective and neurorestorative actions in the CNS. […] This assay is used to confirm the activity of the identified D3 dopamine receptor agonist. Activation is the desired outcome for this assay. NIH Molecular Libraries Probe Production Centers Network [MLPCN] NIH Chemical Genomics Center [NCGC] MLPCN Grant: NS064831 Assay Submitter (PI): David Sibley
Freshly passaged DiscoveRx D3 cells are plated in 1536 well white, solid bottom plates at a density of 1500 cells/well in 3microl of complete media. After an overnight incubation at 37 degrees C in 5% CO2, cells are loaded with 23nl of test compound from the compound library (as well as dopamine controls) using a 1536 pintool and incubated at 37 degrees C for 90 minutes. Two microliters of DiscoveRx reagent is then added to all cells, and they are incubated for an additional 30 - 60 minutes at room temperature. Following incubation, luminescence is measured on a ViewLux CCD-based luminometer reader using a 20 sec exposure time.
In general terms: In qHTS, concentration-response curves come from the screen itself.
Take `COC(=O)C1=C(c2ccc(-c3ccccc3)c(F)c2)C[C@@H]2CC[C@H]1N2C(=O)NCc1ccc(F)cc1`: the activation was inactive: -3.75%.
Regarding `CCOC(=O)C1(Cc2ccc(Cl)cc2)CCN(C(C)CCn2cccn2)CC1` (configuration not stated), the activation was inactive: 22.7%.
